PubChem BioAssay AID1159578 | Peter MacCallum Cancer Centre – 2015
Screen: 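Knock-downs that alter how fast lymphatic endothelial cells migrate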 (primary screen). Cells: human lymphatic endothelial cells. Reagent: siRNA pool against human genes, 40 nM. Timing: 48 h after transfection. Read-out: 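High-content imaging of dye-stained cells in a scratch assay measures filled wound area and nuclei per well; duplicate means given as ratio to mock and robust z-score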. Scale: migration robust z-score: higher = faster migration into the scratch; migration relative to mock: higher = more scratch area covered than mock; nuclei per well: higher = more cells in the well. Rule for the call: 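Migration changed when robust z exceeds 2 or falls below -2 and mean nuclei number is at least 3300; otherwise not called changed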. Calls: active = migration changed; inactive = no migration change, or too few cells.
Shown is a random part of about 18,000 reagents tested. About 1,030 of all reagents (5.7%) were called active. 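Inactive calls also include pools with fewer than 3300 nuclei, whose migration was not assessed.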 The raw values are shown without normalisation.

target gene | PubChem SID | migration robust z-score | migration class with cell-count check | migration relative to mock | nuclei per well, duplicate mean | activity call
C2CD4B | SID255365471 | -0.52 | migration z between -2 and 2; enough cells | 0.75 | 6204 | inactive
CHMP4C | SID255362012 | 0.18 | migration z between -2 and 2; enough cells | 0.93 | 5668 | inactive
CCDC170 | SID255360662 | -0.56 | migration z between -2 and 2; enough cells | 0.74 | 5786 | inactive
WNT2 | SID255353134 | 0.06 | migration z between -2 and 2; enough cells | 0.9 | 6128 | inactive
ALG6 | SID255357223 | -0.52 | migration z between -2 and 2; enough cells | 0.7 | 5842 | inactive
SPACA9 | SID255355585 | 1.21 | migration z between -2 and 2; enough cells | 1.2 | 5702 | inactive
ECM1 | SID255349421 | -0.42 | migration z between -2 and 2; enough cells | 0.72 | 6570 | inactive
ONECUT2 | SID255354310 | -2.16 | migration z below -2; enough cells | 0.39 | 5156 | active
THSD4 | SID255360535 | -3.65 | migration z below -2; enough cells | -0.04 | 4284 | active
TVP23A | SID255366215 | -0.69 | migration z between -2 and 2; enough cells | 0.71 | 5370 | inactive
DENND11 | SID255359331 | 0.1 | migration z between -2 and 2; enough cells | 0.91 | 6623 | inactive
TP73 | SID255352937 | -0.08 | migration z between -2 and 2; enough cells | 0.79 | 4121 | inactive
TMEM101 | SID255361345 | -1.16 | migration z between -2 and 2; enough cells | 0.58 | 6258 | inactive
PLA2G4A | SID255351608 | -2.96 | under 3300 nuclei; migration not judged | 0.24 | 2718 | inactive
WDTC1 | SID255355945 | -0.16 | migration z between -2 and 2; enough cells | 0.84 | 6890 | inactive
BMI1 | SID255348552 | 0.78 | migration z between -2 and 2; enough cells | 0.96 | 5718 | inactive
DHX16 | SID255353560 | -2.96 | migration z below -2; enough cells | 0.24 | 5850 | active
PHTF2 | SID255359308 | -2.25 | migration z below -2; enough cells | 0.3 | 5290 | active
TTYH1 | SID255359364 | -0.5 | migration z between -2 and 2; enough cells | 0.71 | 5278 | inactive
MPHOSPH10 | SID255354887 | -0.02 | migration z between -2 and 2; enough cells | 0.88 | 5606 | inactive
GGPS1 | SID255354288 | 0.05 | migration z between -2 and 2; enough cells | 0.82 | 7499 | inactive
CHUK | SID255348931 | -1.42 | migration z between -2 and 2; enough cells | 0.53 | 4527 | inactive
BBOF1 | SID255360660 | 1.2 | migration z between -2 and 2; enough cells | 1.19 | 6834 | inactive
HLA-G | SID255350214 | -0.1 | migration z between -2 and 2; enough cells | 0.78 | 4153 | inactive
MYORG | SID255359397 | 0.86 | migration z between -2 and 2; enough cells | 1.11 | 5419 | inactive
ALDH4A1 | SID255353715 | 0.32 | migration z between -2 and 2; enough cells | 0.86 | 6942 | inactive
STAT3 | SID255352663 | 1.01 | migration z between -2 and 2; enough cells | 1 | 6512 | inactive
HOOK3 | SID255361353 | -0.39 | migration z between -2 and 2; enough cells | 0.78 | 6524 | inactive
NUFIP1 | SID255356847 | 1.5 | migration z between -2 and 2; enough cells | 1.27 | 4996 | inactive
NPY | SID255351272 | 0.44 | migration z between -2 and 2; enough cells | 0.89 | 5391 | inactive
LGALS3 | SID255350748 | 0.83 | migration z between -2 and 2; enough cells | 0.97 | 5292 | inactive
OSBPL7 | SID255362264 | -0.52 | migration z between -2 and 2; enough cells | 0.75 | 6529 | inactive
ATP9B | SID255365335 | 1.38 | migration z between -2 and 2; enough cells | 1.07 | 5874 | inactive

Reprinted from the entries so far for reference:
target gene | PubChem SID | migration robust z-score | migration class with cell-count check | migration relative to mock | nuclei per well, duplicate mean | activity call
MYORG | SID255359397 | 0.86 | migration z between -2 and 2; enough cells | 1.11 | 5419 | inactive
ALDH4A1 | SID255353715 | 0.32 | migration z between -2 and 2; enough cells | 0.86 | 6942 | inactive
STAT3 | SID255352663 | 1.01 | migration z between -2 and 2; enough cells | 1 | 6512 | inactive
HOOK3 | SID255361353 | -0.39 | migration z between -2 and 2; enough cells | 0.78 | 6524 | inactive
NUFIP1 | SID255356847 | 1.5 | migration z between -2 and 2; enough cells | 1.27 | 4996 | inactive
NPY | SID255351272 | 0.44 | migration z between -2 and 2; enough cells | 0.89 | 5391 | inactive
LGALS3 | SID255350748 | 0.83 | migration z between -2 and 2; enough cells | 0.97 | 5292 | inactive
OSBPL7 | SID255362264 | -0.52 | migration z between -2 and 2; enough cells | 0.75 | 6529 | inactive

More records follow.
target gene | PubChem SID | migration robust z-score | migration class with cell-count check | migration relative to mock | nuclei per well, duplicate mean | activity call
TTC4 | SID255352993 | -0.86 | migration z between -2 and 2; enough cells | 0.66 | 5978 | inactive
CRYBA1 | SID255349097 | 0.28 | migration z between -2 and 2; enough cells | 0.96 | 6444 | inactive
ITGA6 | SID255350521 | 0.88 | migration z between -2 and 2; enough cells | 0.98 | 5364 | inactive
HTR4 | SID255350362 | 0.9 | migration z between -2 and 2; enough cells | 0.98 | 5686 | inactive
MGP | SID255350959 | -0.7 | migration z between -2 and 2; enough cells | 0.7 | 5873 | inactive
IQCF3 | SID255365771 | 0.7 | migration z between -2 and 2; enough cells | 1.06 | 6130 | inactive
SCN1A | SID255352299 | -0.5 | migration z between -2 and 2; enough cells | 0.71 | 5113 | inactive
KHDC1 | SID255360803 | -0.62 | migration z between -2 and 2; enough cells | 0.73 | 4372 | inactive
TIMM22 | SID255357222 | -1.52 | migration z between -2 and 2; enough cells | 0.49 | 5403 | inactive
RNF138 | SID255357722 | 0.02 | migration z between -2 and 2; enough cells | 0.81 | 5017 | inactive
IGFBP5 | SID255350431 | -0.64 | migration z between -2 and 2; enough cells | 0.72 | 5648 | inactive
NIT1 | SID255351246 | 0.6 | migration z between -2 and 2; enough cells | 0.92 | 5778 | inactive
SCFD1 | SID255356111 | -0.92 | migration z between -2 and 2; enough cells | 0.64 | 6356 | inactive
RGPD2 | SID255366205 | 0.84 | migration z between -2 and 2; enough cells | 1.1 | 6846 | inactive
KIFAP3 | SID255355876 | 0.42 | migration z between -2 and 2; enough cells | 0.88 | 6534 | inactive
CTAGE6 | SID255365079 | 0.19 | migration z between -2 and 2; enough cells | 0.94 | 4278 | inactive
OR8U1 | SID255364160 | 0.16 | migration z between -2 and 2; enough cells | 0.92 | 5490 | inactive
RAB11A | SID255353796 | 0.03 | migration z between -2 and 2; enough cells | 0.9 | 7164 | inactive
PHKG1 | SID255351557 | 1.9 | migration z between -2 and 2; enough cells | 1.17 | 5448 | inactive
KDM5D | SID255353445 | 0.75 | migration z between -2 and 2; enough cells | 0.95 | 5764 | inactive
APOF | SID255348328 | 0.13 | migration z between -2 and 2; enough cells | 0.83 | 6338 | inactive
PPP1R13B | SID255356190 | -0.08 | migration z between -2 and 2; enough cells | 0.79 | 6043 | inactive
IFT81 | SID255357093 | 0.46 | migration z between -2 and 2; enough cells | 1 | 5946 | inactive
SMCP | SID255350909 | -0.07 | migration z between -2 and 2; enough cells | 0.87 | 6726 | inactive
